In PubChem BioAssay AID2662 (National Center for Advancing Translational Sciences (NCATS), 2010):
About 110 (0.038%) of roughly 290,000 compounds were called active. The inconclusive results got no clear call from the source; some entries with a clear call stand among them for comparison. Calls follow the shape of the dose curve; as a rule, active = well fitted inhibition curve with a large enough effect in the polarisation, with a control signal flat (not every such curve was filed as active); inconclusive = small, poorly fitted or top-dose-only effect, or effect the other way, or a change in a side signal; inactive = no such curve, though single readings can be large or run the other way; the % refers to the polarisation. Where the call is inconclusive, the potency comes from a doubtful curve fit. A note “side channel” means that the fit belongs to a control or component signal, not to the main read-out.

Protein sequences, listed by entry. Tags and fused reporters are not part of them.
UniProt Q03164, whole entry, looked up: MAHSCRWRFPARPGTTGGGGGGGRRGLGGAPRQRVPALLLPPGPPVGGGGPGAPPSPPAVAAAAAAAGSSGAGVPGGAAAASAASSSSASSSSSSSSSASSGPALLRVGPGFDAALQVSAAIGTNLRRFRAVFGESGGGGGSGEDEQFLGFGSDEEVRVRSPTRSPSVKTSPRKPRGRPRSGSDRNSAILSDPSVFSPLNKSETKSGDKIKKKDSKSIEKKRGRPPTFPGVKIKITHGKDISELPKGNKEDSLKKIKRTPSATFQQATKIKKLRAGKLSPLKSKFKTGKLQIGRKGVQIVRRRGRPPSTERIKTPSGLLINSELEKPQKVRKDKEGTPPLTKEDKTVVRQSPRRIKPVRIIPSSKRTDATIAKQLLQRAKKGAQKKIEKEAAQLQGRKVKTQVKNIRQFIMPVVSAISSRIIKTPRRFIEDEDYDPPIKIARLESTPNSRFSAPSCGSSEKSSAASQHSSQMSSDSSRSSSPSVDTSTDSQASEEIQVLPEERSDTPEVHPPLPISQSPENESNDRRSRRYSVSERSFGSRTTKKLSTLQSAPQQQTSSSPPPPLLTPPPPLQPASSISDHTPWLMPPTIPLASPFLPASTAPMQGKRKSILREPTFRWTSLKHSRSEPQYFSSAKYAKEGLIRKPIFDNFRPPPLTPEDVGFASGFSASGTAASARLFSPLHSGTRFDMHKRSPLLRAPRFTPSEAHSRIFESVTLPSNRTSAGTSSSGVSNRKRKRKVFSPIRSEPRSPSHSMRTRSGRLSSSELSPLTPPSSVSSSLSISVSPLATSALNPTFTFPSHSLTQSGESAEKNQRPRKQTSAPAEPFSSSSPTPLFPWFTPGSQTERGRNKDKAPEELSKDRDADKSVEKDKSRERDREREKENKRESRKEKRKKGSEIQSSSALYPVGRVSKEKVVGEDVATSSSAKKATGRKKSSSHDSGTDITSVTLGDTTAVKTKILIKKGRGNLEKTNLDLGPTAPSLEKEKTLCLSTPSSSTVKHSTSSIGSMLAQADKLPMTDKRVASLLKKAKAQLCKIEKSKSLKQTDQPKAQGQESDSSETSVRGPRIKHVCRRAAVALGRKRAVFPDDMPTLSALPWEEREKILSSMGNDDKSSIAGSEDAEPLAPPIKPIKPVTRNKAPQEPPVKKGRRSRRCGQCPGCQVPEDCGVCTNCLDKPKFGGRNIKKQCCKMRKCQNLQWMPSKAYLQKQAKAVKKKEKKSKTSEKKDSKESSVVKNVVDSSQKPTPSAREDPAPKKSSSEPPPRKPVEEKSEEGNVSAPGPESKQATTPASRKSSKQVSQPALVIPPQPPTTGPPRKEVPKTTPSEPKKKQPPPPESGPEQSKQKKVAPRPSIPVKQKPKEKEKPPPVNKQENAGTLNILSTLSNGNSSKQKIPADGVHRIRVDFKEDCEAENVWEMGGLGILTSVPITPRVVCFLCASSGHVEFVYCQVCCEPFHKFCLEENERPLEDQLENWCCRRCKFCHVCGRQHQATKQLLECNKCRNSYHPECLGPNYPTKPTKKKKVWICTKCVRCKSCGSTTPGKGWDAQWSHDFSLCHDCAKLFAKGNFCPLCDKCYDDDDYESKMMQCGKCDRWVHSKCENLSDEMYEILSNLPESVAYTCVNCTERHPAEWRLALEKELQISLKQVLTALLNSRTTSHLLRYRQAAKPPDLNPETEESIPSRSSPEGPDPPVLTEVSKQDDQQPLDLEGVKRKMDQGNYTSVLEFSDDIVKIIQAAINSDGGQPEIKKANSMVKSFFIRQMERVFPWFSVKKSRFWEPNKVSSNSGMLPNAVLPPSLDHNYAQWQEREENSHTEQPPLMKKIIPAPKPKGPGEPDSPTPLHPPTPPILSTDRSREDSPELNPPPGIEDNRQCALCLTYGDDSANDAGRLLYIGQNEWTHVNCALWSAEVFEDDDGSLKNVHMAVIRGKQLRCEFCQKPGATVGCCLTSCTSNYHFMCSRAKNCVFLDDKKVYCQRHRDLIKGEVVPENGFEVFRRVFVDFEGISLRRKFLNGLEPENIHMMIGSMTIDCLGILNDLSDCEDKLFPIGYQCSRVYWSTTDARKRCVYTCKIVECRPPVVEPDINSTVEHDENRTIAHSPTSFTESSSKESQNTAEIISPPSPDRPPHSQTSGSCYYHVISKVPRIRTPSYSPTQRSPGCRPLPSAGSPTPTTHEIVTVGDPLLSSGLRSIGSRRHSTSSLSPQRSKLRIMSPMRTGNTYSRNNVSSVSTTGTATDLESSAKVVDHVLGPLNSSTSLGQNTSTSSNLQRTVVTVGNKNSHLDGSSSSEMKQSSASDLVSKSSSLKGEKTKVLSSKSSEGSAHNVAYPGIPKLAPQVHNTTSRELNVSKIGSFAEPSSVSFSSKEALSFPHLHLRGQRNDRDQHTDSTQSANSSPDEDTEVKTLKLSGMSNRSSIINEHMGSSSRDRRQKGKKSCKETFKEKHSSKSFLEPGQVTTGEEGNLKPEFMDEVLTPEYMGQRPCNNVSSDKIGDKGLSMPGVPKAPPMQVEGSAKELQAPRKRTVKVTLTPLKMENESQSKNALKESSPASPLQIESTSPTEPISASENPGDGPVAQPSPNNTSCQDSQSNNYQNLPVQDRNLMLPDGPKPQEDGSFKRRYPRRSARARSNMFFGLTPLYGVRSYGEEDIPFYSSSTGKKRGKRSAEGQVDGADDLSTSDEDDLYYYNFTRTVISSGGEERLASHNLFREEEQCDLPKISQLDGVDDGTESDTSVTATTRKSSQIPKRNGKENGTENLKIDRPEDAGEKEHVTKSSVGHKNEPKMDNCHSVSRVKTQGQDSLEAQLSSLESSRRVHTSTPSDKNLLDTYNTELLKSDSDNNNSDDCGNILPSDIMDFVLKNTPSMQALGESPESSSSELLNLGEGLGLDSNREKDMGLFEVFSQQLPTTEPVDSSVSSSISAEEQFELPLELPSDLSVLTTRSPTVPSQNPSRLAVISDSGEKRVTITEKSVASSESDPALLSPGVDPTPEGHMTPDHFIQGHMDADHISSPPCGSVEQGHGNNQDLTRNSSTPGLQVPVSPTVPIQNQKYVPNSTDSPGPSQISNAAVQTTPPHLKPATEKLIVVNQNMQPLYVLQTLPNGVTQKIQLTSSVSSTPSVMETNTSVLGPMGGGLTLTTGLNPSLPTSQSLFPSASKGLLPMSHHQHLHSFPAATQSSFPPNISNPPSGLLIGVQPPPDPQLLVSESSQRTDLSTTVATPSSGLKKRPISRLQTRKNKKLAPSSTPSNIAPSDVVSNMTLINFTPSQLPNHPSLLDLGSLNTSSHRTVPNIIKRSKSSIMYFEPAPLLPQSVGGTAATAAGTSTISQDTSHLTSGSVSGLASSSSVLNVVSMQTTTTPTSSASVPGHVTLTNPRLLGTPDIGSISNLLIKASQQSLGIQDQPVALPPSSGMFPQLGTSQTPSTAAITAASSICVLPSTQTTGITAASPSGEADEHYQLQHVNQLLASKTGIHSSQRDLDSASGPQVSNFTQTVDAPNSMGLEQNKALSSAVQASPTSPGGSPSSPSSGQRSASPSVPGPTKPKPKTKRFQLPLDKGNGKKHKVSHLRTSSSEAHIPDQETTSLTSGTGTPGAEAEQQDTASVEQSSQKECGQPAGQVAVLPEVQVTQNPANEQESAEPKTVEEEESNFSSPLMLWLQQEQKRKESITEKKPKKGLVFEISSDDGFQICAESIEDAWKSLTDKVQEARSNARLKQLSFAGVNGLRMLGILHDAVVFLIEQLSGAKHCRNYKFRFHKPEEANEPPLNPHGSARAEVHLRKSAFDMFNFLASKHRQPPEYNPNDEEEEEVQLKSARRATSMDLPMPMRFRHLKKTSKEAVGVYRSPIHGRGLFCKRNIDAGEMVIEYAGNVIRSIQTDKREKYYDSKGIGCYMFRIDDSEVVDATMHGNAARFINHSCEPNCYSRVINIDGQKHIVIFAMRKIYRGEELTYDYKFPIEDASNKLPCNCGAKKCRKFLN

target: Histone-lysine N-methyltransferase 2A (Homo sapiens) (UniProt Q03164); test: qHTS Fluorescence Polarization Assay for Inhibitors of MLL CXXC domain - DNA interaction; details: MLL-CXXC / FITC-HOXA9 DNA fluorescence polarization; activity change, negative = inhibition: at 115 µM (top of the series)
In short: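 Steps: dispense CXXC domain solution (7 uM) → pin compounds or unlabeled HOX-A9 DNA control → 5 min ambient → add FLSN-HOX-A9 solution (50 nM) → spin → 30 min ambient → fluorescence polarization. Tris pH 7.5/NaCl/DTT/BSA buffer.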
Potency is read from the fitted curve at half-maximal effect.

Q: With `O=C(C1=C[C@@H](c2ccccc2)C[C@@H](OCc2ccc(CO)cc2)O1)N1CCCCCCC1` as the compound, how does the Potency read?
A: inconclusive: 31.6 µM [inhibitor, single point]

Q: `Cc1cccn2c(CNCCSc3nccn3C)c(C(=O)N3CCCCC3)nc12` was tested. Which Potency did it give?
A: inconclusive: 1.26 µM [inhibitor, full curve, poor fit]

Q: How did the Potency turn out when `COc1ccc2c(c1)CCCN2C(N)=Nc1ccc(Cl)cc1` was run?
A: inconclusive: 35.5 µM [fluorescent, side channel, single point]

Q: How did the Potency turn out when `O=Cc1ccc(O)c2ncccc12` was run?
A: inactive

Q: How did the Potency turn out when `O=C(CN1CCCCC1)Nc1nc(-c2ccccc2)cs1` was run?
A: inactive

Q: How did the Potency turn out when `CCC(C)c1ccc(NC(=O)c2cnn3c(C(F)F)cc(C)nc23)cc1` (stereo not drawn) was run?
A: inconclusive: 70.8 µM [fluorescent, side channel, single point]

Q: How did the Potency turn out when `CCOc1cc2c(cc1OC)C(NC(=O)c1ccco1)CC2=O` (stereo not drawn) was run?
A: inconclusive: 31.6 µM [fluorescent, side channel, single point]

Q: `Cc1cccc(NC(=O)CSc2n[nH]c(-c3ccncc3)n2)c1C` was tested. Which Potency did it give?
A: inconclusive: 14.1 µM [fluorescent, side channel, single point]

Q: How did the Potency turn out when `O=C1C(c2cc(=O)c3ccccc3[nH]2)=C(O)c2ccccc21` was run?
A: inconclusive: 22.4 µM [quencher, side channel, partial curve]

Q: How did the Potency turn out when `CC(C)(C)C(=O)N1CCn2c1nc1ccccc12` was run?
A: inconclusive: 1.41 µM [fluorescent, side channel, full curve, poor fit]

Q: Which Potency does the source give for `O=C(NCCN1CCN(Cc2ccccc2)CC1)c1cc2c(=O)[nH]c3ccccc3c2s1` here?
A: inconclusive: 7.94 µM [quencher, side channel, single point]

Q: How did the Potency turn out when `CCCCCCc1cc2cc(C(=O)NCc3ccccc3)c(=N)oc2cc1O` was run?
A: inconclusive: 22.4 µM [fluorescent, side channel, partial curve]

Q: Which Potency does the source give for `CCOC(=O)c1ccc2[nH]c3c(c2c1)CCCC3C(=O)OCC` (stereo not drawn) here?
A: inactive

Q: Which Potency does the source give for `CN(C)S(=O)(=O)c1ccc(C(=O)OCc2nnc(-c3ccccc3)o2)cc1` here?
A: inactive

Q: For `COc1ccc(OCc2nc(N)nc(Nc3ccccc3)n2)cc1`, which Potency is on record?
A: inactive

Q: `COc1ccc(/C=N\NC(=O)c2ccccc2F)cc1COc1ccc(F)cc1` was tested. Which Potency did it give?
A: inconclusive: 7.94 µM [quencher, side channel, single point]

Q: How did the Potency turn out when `CCN1C(=O)/C(=C/C=C2/SCCN2C)SC1=S` was run?
A: inconclusive: 7.08 µM [fluorescent, side channel, full curve]

Q: How did the Potency turn out when `O=C(CSc1ccc(F)cc1)N1CCC(c2nc3ccccc3s2)CC1` was run?
A: inactive

Q: With `O=c1oc2c(O)cccc2cc1-c1nc2ccccc2[nH]1` as the compound, how does the Potency read?
A: inconclusive: 2.51 µM [fluorescent, side channel, full curve]

Q: For `CCN1CCN(c2cc3c(nn2)Oc2ccccc2N3C)CC1`, which Potency is on record?
A: inactive

Q: `O=C1Nc2ccc(C(F)(F)F)cc2N2CCCC12` (stereo not drawn) was tested. Which Potency did it give?
A: inconclusive: 31.6 µM [fluorescent, side channel, partial curve]

Q: For `CC(C(=O)Nc1ccc(O)c(C(=O)O)c1)N1C(=O)/C(=C/c2cccs2)SC1=S` (stereo not drawn), which Potency is on record?
A: inactive

Q: For `Cc1cc2c(cc1C)C(c1cccc([N+](=O)[O-])c1)CC(=O)N2` (stereo not drawn), which Potency is on record?
A: inconclusive: 35.5 µM [inhibitor, single point]

Q: With `CN1/C(=C/C(=S)NC(=O)C2(C)CC2(Cl)Cl)C(C)(C)c2ccccc21` (stereo not drawn) as the compound, how does the Potency read?
A: inconclusive: 17.8 µM [fluorescent, side channel, partial curve]

Q: Which Potency does the source give for `COc1cc(OC)cc(-c2n[nH]c(=S)n2-c2cc(OC)ccc2OC)c1` here?
A: inconclusive: 89.1 µM [fluorescent, side channel, single point]

Q: How did the Potency turn out when `Cn1cc(/C=N/n2cnc3scc(-c4ccc(Cl)cc4)c3c2=O)c2ccccc21` was run?
A: inactive

Q: For `Cc1noc(C)c1CSc1nc2sc3c(c2c(=O)n1C)CCCC3`, which Potency is on record?
A: inactive

Q: With `Cc1ccc(C)c(Cn2nnc3c(=O)[nH]c(C(=O)Nc4ccc(F)cc4)nc32)c1` as the compound, how does the Potency read?
A: inconclusive: 2.51 µM [inhibitor, partial curve, poor fit]

Q: For `CN(C1CCCC1)C1CCN(C(=O)CNC(=O)/C=C/c2ccc(F)cc2)CC1`, which Potency is on record?
A: inconclusive: 79.4 µM [fluorescent, side channel, single point]

Q: How did the Potency turn out when `N#CC1=C2SCC(O)(c3ccccc3)N2C(=O)CC1c1ccccc1F` (stereo not drawn) was run?
A: inconclusive: 31.6 µM [inhibitor, single point]

Q: For `COc1ccc(/C=N/n2cnnc2SCc2ccc(OC)cc2)cc1`, which Potency is on record?
A: inactive

Q: For `COc1cc(/C=N/N(C)C2=NS(=O)(=O)c3ccccc32)cc(OC)c1OC`, which Potency is on record?
A: inconclusive: 8.91 µM [quencher, side channel, single point]

Q: Which Potency does the source give for `O=S(=O)(NCCNc1ncc(C(F)(F)F)cc1Cl)C(F)(F)F` here?
A: inactive

Q: Which Potency does the source give for `COc1ccc(/C=C/C(=O)Nc2ccc(S(=O)(=O)Nc3onc(C)c3C)cc2)cc1OC` here?
A: inconclusive: 89.1 µM [quencher, side channel, single point]

Q: With `CC1CCCN(CCCNC(=O)c2coc3nc4ccccc4nc23)C1` (stereo not drawn) as the compound, how does the Potency read?
A: inconclusive: 15.8 µM [inhibitor, single point]

Q: For `OC1(c2ccc3ccccc3c2)CCN(Cc2ccccc2)C1` (stereo not drawn), which Potency is on record?
A: inconclusive: 6.31 µM [quencher, side channel, partial curve]

Q: With `CN(c1ccccc1)S(=O)(=O)c1cccc(NC(=O)c2cc3ccccc3oc2=O)c1` as the compound, how does the Potency read?
A: inconclusive: 89.1 µM [inhibitor, single point]

Q: How did the Potency turn out when `Cc1cc(NC(=O)CSc2nc3ccc(Cl)cc3[nH]2)no1` was run?
A: inconclusive: 63.1 µM [fluorescent, side channel, single point]

Q: For `O=C(Nc1cccc(OC(=O)c2ccco2)c1)c1ccco1`, which Potency is on record?
A: inconclusive: 31.6 µM [fluorescent, side channel, single point]

Q: Which Potency does the source give for `N#Cc1c(N)n(-c2cccc(C(=O)O)c2)c2nc3ccccc3nc12` here?
A: inconclusive: 28.2 µM [fluorescent, side channel, partial curve]

Q: With `CC(C)CCn1cnc2c(NCc3ccccc3)ncnc21` as the compound, how does the Potency read?
A: inconclusive: 17.8 µM [quencher, side channel, partial curve]

Q: Which Potency does the source give for `CCOC(=O)C1CCN(C(=O)Nc2ccc3nccnc3c2)CC1` here?
A: inactive

Q: For `Fc1ccccc1COc1ccc(Br)cc1CNCc1cccnc1`, which Potency is on record?
A: inconclusive: 3.55 µM [inhibitor, partial curve]

Q: Which Potency does the source give for `N#Cc1cc(C(=O)c2ccccc2O)cn(-c2ccc(Cl)cc2)c1=O` here?
A: inconclusive: 39.8 µM [fluorescent, side channel, single point]

Q: `CCOc1ccc(C(=O)CCC(=O)N2CCN(c3ncccn3)CC2)cc1` was tested. Which Potency did it give?
A: inconclusive: 10 µM [fluorescent, side channel, partial curve]

Q: Which Potency does the source give for `O=C(CSC1=NCCS1)Nc1ccnc2ccccc12` here?
A: inconclusive: 10 µM [inhibitor, single point]

Q: `Cc1ccc(CNC(=O)c2c(C)cc(=O)oc2C)cc1` was tested. Which Potency did it give?
A: inconclusive: 89.1 µM [quencher, side channel, single point]

Q: How did the Potency turn out when `Cc1csc(SCC(=O)Nc2nc3ccccc3s2)n1` was run?
A: inactive

Q: How did the Potency turn out when `Cc1cccc(-c2cc3nc(C)cc(N4CC(C)CC(C)C4)n3n2)c1` (stereo not drawn) was run?
A: inconclusive: 31.6 µM [quencher, side channel, single point]

Q: With `CN(C)C(=O)c1ccc(N/C=C(\C=O)c2nc3ccccc3o2)cc1` as the compound, how does the Potency read?
A: inconclusive: 15.8 µM [quencher, side channel, single point]

Q: With `Nc1ccc(-c2cn3cccnc3n2)cc1` as the compound, how does the Potency read?
A: inconclusive: 35.5 µM [fluorescent, side channel, single point]

Q: `CCOc1cc(/C=C2/C(=O)NN(c3cccc(Cl)c3)C2=O)ccc1O` was tested. Which Potency did it give?
A: inconclusive: 70.8 µM [inhibitor, single point]

Q: With `O=C(O)C1=CCCN(CCON=C(c2ccccc2)c2ccccc2)C1` as the compound, how does the Potency read?
A: inconclusive: 0.0112 µM [inhibitor, full curve, poor fit]

Q: For `CCN1C(=O)C(CC(=O)Nc2ccc(OC)cc2)N(Cc2ccco2)C1=S` (stereo not drawn), which Potency is on record?
A: inconclusive: 7.08 µM [fluorescent, side channel, full curve]

Q: Which Potency does the source give for `CC(=O)Nc1ccc(Oc2cnccn2)cc1` here?
A: inconclusive: 89.1 µM [quencher, side channel, single point]

Q: With `CCOc1cc(CNc2ccc(N3CCCC3)cc2)cc(Cl)c1OC` as the compound, how does the Potency read?
A: inactive

Q: `Cn1c(SCc2cc([N+](=O)[O-])cc3c2OCOC3)nnc1-c1ccccn1` was tested. Which Potency did it give?
A: inconclusive: 5.62 µM [quencher, side channel, partial curve]

Q: With `Nc1c(C(=O)Nc2ccc3c(c2)OCCO3)nnn1CCc1ccccc1` as the compound, how does the Potency read?
A: inconclusive: 63.1 µM [fluorescent, side channel, single point]

Q: For `O=C(Nc1ccccc1)Nc1snnc1C(=O)Nc1cccc(O)c1`, which Potency is on record?
A: inconclusive: 1 µM [fluorescent, side channel, full curve, poor fit]

Q: With `NCCN1C(=O)S/C(=C\c2ccc3c(c2)OCO3)C1=O` as the compound, how does the Potency read?
A: inconclusive: 35.5 µM [inhibitor, single point]

Q: For `Cc1sc2nc(CSC(C)C(=O)N3CCOCC3)[nH]c(=O)c2c1C` (stereo not drawn), which activity change, negative = inhibition is on record?
A: inconclusive: 27.7% [phenotype inactive]

Q: `Cc1cc(C(F)F)n2nc(C(=O)Nc3cccc(S(=O)(=O)N4CCOCC4)c3)nc2n1` was tested. Which Potency did it give?
A: inconclusive: 31.6 µM [fluorescent, side channel, single point]

Q: Which Potency does the source give for `c1ccc(CN(CC2=NCCN2)c2ccccc2)cc1` here?
A: inconclusive: 39.8 µM [fluorescent, side channel, full curve, poor fit]
